Test results from article PMC9607361.
These are yes or no findings as the source states them, for the method shown. In cells and extracts the contact can be indirect. Some binding calls cover weakened binding; strength is not graded here. Sequences can lack the tags named with a protein.

The chains behind the UniProt entries cited, without tags or fusion partners.
UniProt Q6DV79: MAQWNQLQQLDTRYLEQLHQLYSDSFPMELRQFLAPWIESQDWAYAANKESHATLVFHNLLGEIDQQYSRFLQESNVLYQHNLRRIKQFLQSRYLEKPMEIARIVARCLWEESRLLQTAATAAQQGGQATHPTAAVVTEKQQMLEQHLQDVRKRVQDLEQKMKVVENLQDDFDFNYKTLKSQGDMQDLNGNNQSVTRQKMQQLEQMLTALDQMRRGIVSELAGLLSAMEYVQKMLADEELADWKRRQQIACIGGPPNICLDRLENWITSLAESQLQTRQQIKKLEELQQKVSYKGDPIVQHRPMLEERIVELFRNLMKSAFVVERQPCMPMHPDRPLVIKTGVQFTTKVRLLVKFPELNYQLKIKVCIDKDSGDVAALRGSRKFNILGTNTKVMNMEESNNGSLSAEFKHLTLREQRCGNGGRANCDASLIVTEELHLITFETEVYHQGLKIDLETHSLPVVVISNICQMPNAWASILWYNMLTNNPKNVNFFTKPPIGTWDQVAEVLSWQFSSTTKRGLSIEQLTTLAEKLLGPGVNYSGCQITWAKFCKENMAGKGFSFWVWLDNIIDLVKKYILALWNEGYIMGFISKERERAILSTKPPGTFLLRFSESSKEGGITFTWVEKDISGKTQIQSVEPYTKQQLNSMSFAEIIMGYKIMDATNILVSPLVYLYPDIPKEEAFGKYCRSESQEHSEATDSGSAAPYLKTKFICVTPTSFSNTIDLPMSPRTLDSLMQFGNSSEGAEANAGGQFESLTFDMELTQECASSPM

Key:
[1] = biological target: T1, HA-TRAF6 (chicken TRAF6) (chicken) (UniProt E1C626); experiment: co-IP; DF-1 cells co-transfected with Flag- and HA-tagged expression plasmids, cultured 48 h, lysed with NP-40, protein A/G; immunoblot
T1 sequence: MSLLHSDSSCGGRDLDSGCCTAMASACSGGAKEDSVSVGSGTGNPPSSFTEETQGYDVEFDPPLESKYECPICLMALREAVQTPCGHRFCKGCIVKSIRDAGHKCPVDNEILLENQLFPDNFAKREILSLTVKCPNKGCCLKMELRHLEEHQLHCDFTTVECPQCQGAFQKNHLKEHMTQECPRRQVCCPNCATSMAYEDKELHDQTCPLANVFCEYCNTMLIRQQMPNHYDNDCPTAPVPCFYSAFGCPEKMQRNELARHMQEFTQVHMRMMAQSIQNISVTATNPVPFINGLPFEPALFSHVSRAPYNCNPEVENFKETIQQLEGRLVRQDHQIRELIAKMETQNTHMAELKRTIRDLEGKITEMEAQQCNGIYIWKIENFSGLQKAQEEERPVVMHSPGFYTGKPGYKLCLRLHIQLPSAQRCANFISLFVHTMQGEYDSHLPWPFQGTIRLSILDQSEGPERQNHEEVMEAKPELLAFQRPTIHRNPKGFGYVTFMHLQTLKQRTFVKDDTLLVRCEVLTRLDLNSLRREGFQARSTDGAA

[2] = biological target: T2, Flag-TRAF6 (chicken TRAF6) (chicken) (UniProt E1C626); experiment: as above
T2 sequence: T1 sequence

| Substance | binding [1] | binding [2] |
| --- | --- | --- |
| Flag-STAT3 (chicken STAT3) (from UniProt Q6DV79 1-771) | binds |  |
| HA-STAT3 (chicken STAT3) (from UniProt Q6DV79 1-771) |  | binds |
